# Further values from the same series stand in other lists.
# Experiments:
# [1] = target: T1, pre-formed fibrils of hIAPP (Homo sapiens, UniProt P10997); experiment: CD spectroscopy of pre-formed hIAPP fibrils with the tested molecules; details: hIAPP : molecule (1:5)
# T1 construct: hIAPP is a 37-amino acid neuroendocrine peptide hormone; purchased Peptide 2.0 (USA)
# T1 sequence (P10997 34-70 limits assumed): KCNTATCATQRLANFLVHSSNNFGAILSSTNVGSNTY
# Method: For efficient treatment of proteinopathies it may be advantageous to disassemble amyloid aggregates/fibrils which are usually already present at the time of diagnosis[75]–[77]. […] Then, various doses of the hybrid molecules were added to the pre-formed fibrils and the mixtures were incubated for additional 10 h. The process of disaggregation was monitored by ThT-binding assay, CD spectroscopy, TEM and Congo red staining (Fig. 5).
# (§1) The blank was subtracted from the acquired CD spectra. For the CD study in the presence of the tryptophan-galacosylamine molecules, the spectra of hybrid molecules were also recorded separately and subtracted from the respective sample spectra. The normalized data were plotted using Origin pro 2015 software.
# hIAPP = target: T2, hIAPP (Homo sapiens, UniProt P10997); experiment: CD spectroscopy of hIAPP aggregated with the tested molecules; details: hIAPP:compound 1:5
# T2 construct: hIAPP is a 37-amino acid neuroendocrine peptide hormone; purchased Peptide 2.0 (USA)
# T2 sequence (P10997 34-70 limits assumed): T1 sequence (P10997 34-70 limits assumed)
# Method: CD analysis was performed also for hIAPP (Fig. 2f and Supplementary Fig. 5). […] With different degrees of effectiveness, the presence of all tested hybrid molecules caused a reduction of the intensity of the CD signal, indicating an overall lower of β-sheet content of hIAPP (Fig. 2f and Supplementary Fig. 5).
# as §1
structure (smiles),measurement,setting,value
NC(Cc1c[nH]c2ccccc12)C(=O)NC(Cc1c[nH]c2ccccc12)C(=O)O (stereo not shown) [WW],Normalized CD spectra,[1]; wavelength 213.50,-689414.30
same,Normalized CD spectra,[1]; wavelength 214.00,-712935.97
same,Normalized CD spectra,[1]; wavelength 214.50,-736109.66
same,Normalized CD spectra,[1]; wavelength 215.00,-754910.60
same,Normalized CD spectra,[1]; wavelength 215.50,-771687.88
same,Normalized CD spectra,[1]; wavelength 216.00,-789854.61
same,Normalized CD spectra,[1]; wavelength 216.50,-797307.36
same,Normalized CD spectra,[1]; wavelength 217.00,-807160.37
same,Normalized CD spectra,[1]; wavelength 217.50,-812228.62
same,Normalized CD spectra,[1]; wavelength 218.00,-814026.86
same,Normalized CD spectra,[1]; wavelength 218.50,-814127.55
same,Normalized CD spectra,[1]; wavelength 219.00,-809702.10
same,Normalized CD spectra,[1]; wavelength 219.50,-806607.28
same,Normalized CD spectra,[1]; wavelength 220.00,-789530.91
same,Normalized CD spectra,[1]; wavelength 220.50,-771743.58
same,Normalized CD spectra,[1]; wavelength 221.00,-750973.22
same,Normalized CD spectra,[1]; wavelength 221.50,-730100.85
same,Normalized CD spectra,[1]; wavelength 222.00,-703709.13
same,Normalized CD spectra,[1]; wavelength 222.50,-679655.54
same,Normalized CD spectra,[1]; wavelength 223.00,-649856.36
same,Normalized CD spectra,[1]; wavelength 223.50,-625066.07
same,Normalized CD spectra,[1]; wavelength 224.00,-597591.79
same,Normalized CD spectra,[1]; wavelength 224.50,-572308.76
same,Normalized CD spectra,[1]; wavelength 225.00,-549190.55
same,Normalized CD spectra,[1]; wavelength 225.50,-529135.62
same,Normalized CD spectra,[1]; wavelength 226.00,-504549.52
same,Normalized CD spectra,[1]; wavelength 226.50,-482516.27
same,Normalized CD spectra,[1]; wavelength 227.00,-463615.10
same,Normalized CD spectra,[1]; wavelength 227.50,-440899.17
same,Normalized CD spectra,[1]; wavelength 228.00,-429583.60
same,Normalized CD spectra,[1]; wavelength 228.50,-411639.04
same,Normalized CD spectra,[1]; wavelength 229.00,-391797.81
same,Normalized CD spectra,[1]; wavelength 229.50,-375118.81
same,Normalized CD spectra,[1]; wavelength 230.00,-362277.05
same,Normalized CD spectra,[1]; wavelength 230.50,-354884.11
same,Normalized CD spectra,[1]; wavelength 231.00,-348941.62
same,Normalized CD spectra,[1]; wavelength 231.50,-338837.25
same,Normalized CD spectra,[1]; wavelength 258.50,-99787.90
same,Normalized CD spectra,[1]; wavelength 259.00,-103215.58
same,Normalized CD spectra,[1]; wavelength 259.50,-106940.42
same,Normalized CD spectra,[1]; wavelength 260.00,-110962.43
same,Normalized CD spectra,hIAPP; wavelength 190,343795.67
same,Normalized CD spectra,hIAPP; wavelength 191,354468.38
same,Normalized CD spectra,hIAPP; wavelength 192,358374.14
same,Normalized CD spectra,hIAPP; wavelength 193,355512.94
same,Normalized CD spectra,hIAPP; wavelength 194,345884.79
same,Normalized CD spectra,hIAPP; wavelength 195,329489.69
same,Normalized CD spectra,hIAPP; wavelength 196,306327.63
same,Normalized CD spectra,hIAPP; wavelength 197,276398.63
same,Normalized CD spectra,hIAPP; wavelength 198,239702.66
same,Normalized CD spectra,hIAPP; wavelength 199,196239.75
same,Normalized CD spectra,hIAPP; wavelength 200,146009.88
same,Normalized CD spectra,hIAPP; wavelength 201,61754.89
same,Normalized CD spectra,hIAPP; wavelength 202,-24817.98
same,Normalized CD spectra,hIAPP; wavelength 203,-104541.82
same,Normalized CD spectra,hIAPP; wavelength 204,-194140.70
same,Normalized CD spectra,hIAPP; wavelength 205,-282362.40
same,Normalized CD spectra,hIAPP; wavelength 206,-361218.83
same,Normalized CD spectra,hIAPP; wavelength 207,-426532.70
same,Normalized CD spectra,hIAPP; wavelength 208,-491650.06
same,Normalized CD spectra,hIAPP; wavelength 209,-544493.52
same,Normalized CD spectra,hIAPP; wavelength 210,-578332.01
same,Normalized CD spectra,hIAPP; wavelength 211,-600611.91
same,Normalized CD spectra,hIAPP; wavelength 212,-633105.12
same,Normalized CD spectra,hIAPP; wavelength 213,-643037.98
same,Normalized CD spectra,hIAPP; wavelength 214,-652192.85
same,Normalized CD spectra,hIAPP; wavelength 215,-643438.51
same,Normalized CD spectra,hIAPP; wavelength 216,-628952.36
same,Normalized CD spectra,hIAPP; wavelength 217,-616708.30
same,Normalized CD spectra,hIAPP; wavelength 218,-606924.95
same,Normalized CD spectra,hIAPP; wavelength 219,-588274.82
same,Normalized CD spectra,hIAPP; wavelength 220,-575696.26
same,Normalized CD spectra,hIAPP; wavelength 221,-554154.00
same,Normalized CD spectra,hIAPP; wavelength 222,-531569.83
same,Normalized CD spectra,hIAPP; wavelength 223,-512246.07
same,Normalized CD spectra,hIAPP; wavelength 224,-497205.78
same,Normalized CD spectra,hIAPP; wavelength 225,-475158.84
same,Normalized CD spectra,hIAPP; wavelength 226,-452118.88
same,Normalized CD spectra,hIAPP; wavelength 227,-428570.58
same,Normalized CD spectra,hIAPP; wavelength 228,-410402.58
same,Normalized CD spectra,hIAPP; wavelength 229,-383596.51
same,Normalized CD spectra,hIAPP; wavelength 230,-367255.25
same,Normalized CD spectra,hIAPP; wavelength 231,-339300.49
same,Normalized CD spectra,hIAPP; wavelength 232,-313212.22
same,Normalized CD spectra,hIAPP; wavelength 233,-285392.48
same,Normalized CD spectra,hIAPP; wavelength 234,-267953.82
same,Normalized CD spectra,hIAPP; wavelength 235,-242526.22
same,Normalized CD spectra,hIAPP; wavelength 236,-211308.56
same,Normalized CD spectra,hIAPP; wavelength 237,-193934.06
same,Normalized CD spectra,hIAPP; wavelength 238,-169811.04
same,Normalized CD spectra,hIAPP; wavelength 239,-150960.21
same,Normalized CD spectra,hIAPP; wavelength 240,-133346.35
same,Normalized CD spectra,hIAPP; wavelength 241,-121501.30
same,Normalized CD spectra,hIAPP; wavelength 242,-102197.51
same,Normalized CD spectra,hIAPP; wavelength 243,-87761.88
same,Normalized CD spectra,hIAPP; wavelength 244,-83414.73
same,Normalized CD spectra,hIAPP; wavelength 245,-75886.31
same,Normalized CD spectra,hIAPP; wavelength 246,-70034.99
same,Normalized CD spectra,hIAPP; wavelength 247,-69696.95
same,Normalized CD spectra,hIAPP; wavelength 248,-72964.86
same,Normalized CD spectra,hIAPP; wavelength 249,-68003.48
same,Normalized CD spectra,hIAPP; wavelength 250,-71617.98
same,Normalized CD spectra,hIAPP; wavelength 251,-69597.08
same,Normalized CD spectra,hIAPP; wavelength 252,-67483.10
same,Normalized CD spectra,hIAPP; wavelength 253,-65276.04
same,Normalized CD spectra,hIAPP; wavelength 254,-62975.90
same,Normalized CD spectra,hIAPP; wavelength 255,-60582.67
same,Normalized CD spectra,hIAPP; wavelength 256,-58096.36
same,Normalized CD spectra,hIAPP; wavelength 257,-55516.97
same,Normalized CD spectra,hIAPP; wavelength 258,-52844.50
same,Normalized CD spectra,hIAPP; wavelength 259,-50078.94
same,Normalized CD spectra,hIAPP; wavelength 260,-47220.30

# Source: article PMC7468108 (Communications Biology, 2020)
